{
  "source": "paper PMC7819943",
  "about": "“Rice protein-binding microarrays: a tool to detect cis-acting elements near promoter regions in rice”",
  "note": "The other results are listed elsewhere or left out.",
  "data": [
    {"target": "T1, OsSMF1 (Oryza sativa, UniProt Q6ZLB0 1-436)", "T1 sequence": "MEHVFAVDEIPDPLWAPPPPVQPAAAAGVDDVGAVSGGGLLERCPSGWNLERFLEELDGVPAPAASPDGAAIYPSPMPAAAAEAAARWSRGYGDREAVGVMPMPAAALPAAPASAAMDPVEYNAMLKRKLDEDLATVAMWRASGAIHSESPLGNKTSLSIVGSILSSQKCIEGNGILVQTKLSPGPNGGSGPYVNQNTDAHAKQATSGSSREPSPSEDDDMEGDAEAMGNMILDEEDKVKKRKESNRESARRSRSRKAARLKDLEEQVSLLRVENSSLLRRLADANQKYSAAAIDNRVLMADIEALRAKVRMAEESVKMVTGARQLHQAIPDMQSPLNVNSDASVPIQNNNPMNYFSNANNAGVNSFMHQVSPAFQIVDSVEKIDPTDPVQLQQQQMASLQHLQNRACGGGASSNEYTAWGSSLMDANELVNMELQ", "experiment": "protein-binding microarray (RPBM); PBS, 2% BSA, 51.3 ng/ul salmon testes DNA, 50 uM zinc acetate, 200 nM TF, 25 C, 1 h; high values mean tight binding", "conditions": "protein: recombinant; tags: N-terminal polyhistidine and DsRed monomer fusion (pET32a); chain copies: 2; label: CyDye5-dUTP incorporated in the synthesized complementary strand; 3' TTTTT single-stranded linker to array surface; dsDNA, one strand shown", "how_it_was_run": "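Per-feature fluorescence intensity (arbitrary units), read on an Axon 4000B scanner, is the binding signal. Transcription factors carrying an N-terminal polyhistidine tag and DsRed fusion were expressed in E. coli BL21-CodonPlus and purified on Ni–NTA. A custom Agilent array, made double-stranded by primer extension with Cy5-dUTP and blocked with 2% BSA, was incubated with 200 nM protein in PBS, 2% BSA, salmon testes DNA and 50 µM zinc acetate at 25 °C for 1 h and then washed.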", "values": [
      {"sequence": "GCTTCCCGCACGACACCTGTCCACACAAATCTTAGAGCAACGGAGTCACCTAGTGCAG", "binding signal": "41400 fluorescence intensity (a.u.)"},
      {"sequence": "AATTTTGACGTGGAACTAAACCTAAATCGTATCTCGTTATCGGAGTCACCTAGTGCAG", "binding signal": "6770 fluorescence intensity (a.u.)"},
      {"sequence": "ATGAAATGGAGGGAGTATCCATTTGCTGACTGCATTGCATCGGAGTCACCTAGTGCAG", "binding signal": "4100 fluorescence intensity (a.u.)"},
      {"sequence": "GCCTACCACGCCGTCGTCATCGTCCTCCTCCCTTCGCCCACGGAGTCACCTAGTGCAG", "binding signal": "7610 fluorescence intensity (a.u.)"},
      {"sequence": "ATATATGTCCATGGAGGAGGGTGAGGGGAGTAGTAGGGCGCGGAGTCACCTAGTGCAG", "binding signal": "3540 fluorescence intensity (a.u.)"},
      {"sequence": "TGAGCCCATTCTATCTTGTACCAATTTGTGGGATATGGCCCGGAGTCACCTAGTGCAG", "binding signal": "41000 fluorescence intensity (a.u.)"},
      {"sequence": "CCACGTGCAGGTTCGCATGTGGGCCTTGAGGCGAGAATTGCGGAGTCACCTAGTGCAG", "binding signal": "13400 fluorescence intensity (a.u.)"},
      {"sequence": "GAGGTGCAAAACTTGGTCCATAACCAATTCTCACAAGTGGCGGAGTCACCTAGTGCAG", "binding signal": "19100 fluorescence intensity (a.u.)"},
      {"sequence": "TTCACACCCAGATAAATACAGCCTACTAGACCAATAGCCACGGAGTCACCTAGTGCAG", "binding signal": "40000 fluorescence intensity (a.u.)"},
      {"sequence": "GGCGTGGATCGTGGTCGTCGTGGCGAGCTCACCGTGGGCCCGGAGTCACCTAGTGCAG", "binding signal": "4200 fluorescence intensity (a.u.)"},
      {"sequence": "TCCATCGGCCTCGCCGCCTACCTCCTCGTCATGATCGTCGCGGAGTCACCTAGTGCAG", "binding signal": "3190 fluorescence intensity (a.u.)"},
      {"sequence": "GGCTCGTCGCGTGGAGAGCAACGCTCGCTGCGACCTGCGACGGAGTCACCTAGTGCAG", "binding signal": "3640 fluorescence intensity (a.u.)"},
      {"sequence": "AATGCTAAGGGACAACGTCAGCGGGTTAGTGCAAGGTAAGCGGAGTCACCTAGTGCAG", "binding signal": "6630 fluorescence intensity (a.u.)"},
      {"sequence": "GGCCACGTCCGTGGCTTGCTCACTCGCCGCGTCGTCAGCCCGGAGTCACCTAGTGCAG", "binding signal": "7280 fluorescence intensity (a.u.)"},
      {"sequence": "CAAAAGATGCCCTGTGTTTCCTCGAGAGGCATTTACGTTGCGGAGTCACCTAGTGCAG", "binding signal": "3610 fluorescence intensity (a.u.)"},
      {"sequence": "GGCTTCGGCCAGCTAGCCGCCACGTCTCCGCCGGTTTTAACGGAGTCACCTAGTGCAG", "binding signal": "8270 fluorescence intensity (a.u.)"},
      {"sequence": "TCGGTAGAGGGAATGGCTCTGCAACCATATCATTCTATTTCGGAGTCACCTAGTGCAG", "binding signal": "9160 fluorescence intensity (a.u.)"},
      {"sequence": "CAACAGTCAGCACAGGCGTGTCCAATGCATGCCGACTCTTCGGAGTCACCTAGTGCAG", "binding signal": "3160 fluorescence intensity (a.u.)"},
      {"sequence": "CTCCGTTTTCATCCCTGGCCACCAGCGGTCATCCAGGATCCGGAGTCACCTAGTGCAG", "binding signal": "4250 fluorescence intensity (a.u.)"},
      {"sequence": "TGTTTGGACATATGCATGGAGCATTAAATGTGGATGAAAACGGAGTCACCTAGTGCAG", "binding signal": "4350 fluorescence intensity (a.u.)"},
      {"sequence": "TACTCGTCGTCATCCTCACCGTCTCTAATACATACTTCCCCGGAGTCACCTAGTGCAG", "binding signal": "3470 fluorescence intensity (a.u.)"},
      {"sequence": "AACTTGCAGGTACGCCGTCGGAGTGAACATCGTCGTCTGCCGGAGTCACCTAGTGCAG", "binding signal": "8700 fluorescence intensity (a.u.)"},
      {"sequence": "CCCTTTCAAACACTTCCCAACTCATCACGCCTCTGGCAAACGGAGTCACCTAGTGCAG", "binding signal": "4180 fluorescence intensity (a.u.)"},
      {"sequence": "ATCCCTAAACCACAATACCACATATGTCGATACCTCAACTCGGAGTCACCTAGTGCAG", "binding signal": "3630 fluorescence intensity (a.u.)"},
      {"sequence": "AGTCATCCAGTCATCGCTTGGTGGCACTCGCCGTCGCCGCCGGAGTCACCTAGTGCAG", "binding signal": "6120 fluorescence intensity (a.u.)"},
      {"sequence": "TGGATGTTGCATTTGGTACTTGATGTTGCAGGTGATTTCTCGGAGTCACCTAGTGCAG", "binding signal": "4380 fluorescence intensity (a.u.)"},
      {"sequence": "CAGCCGGCGATACTATTGAACCTGCTCCGATACTATTGAACGGAGTCACCTAGTGCAG", "binding signal": "19500 fluorescence intensity (a.u.)"},
      {"sequence": "TAGAAGCCCATTTAACAATTAGTTGGCGTCTCGCAATACACGGAGTCACCTAGTGCAG", "binding signal": "31400 fluorescence intensity (a.u.)"},
      {"sequence": "GTGCAAAAGGATGGGGAAGAGATAAGGTGTTCCCTGCTTTCGGAGTCACCTAGTGCAG", "binding signal": "3450 fluorescence intensity (a.u.)"},
      {"sequence": "TTCATTTCATATCATAAATCACTTTAACCCTTTTCTACCTCGGAGTCACCTAGTGCAG", "binding signal": "13400 fluorescence intensity (a.u.)"},
      {"sequence": "AAGTGCTCACGTCATGCCGACGCAGGCATATCATCCCCGACGGAGTCACCTAGTGCAG", "binding signal": "12200 fluorescence intensity (a.u.)"},
      {"sequence": "CCAATCCAAACAAGGTTTGGGGATATTTCTGACACAGGGCCGGAGTCACCTAGTGCAG", "binding signal": "30500 fluorescence intensity (a.u.)"},
      {"sequence": "AATGCACAGCTAGTACTACTCGCGAGTCACCATCCATCTCCGGAGTCACCTAGTGCAG", "binding signal": "3870 fluorescence intensity (a.u.)"},
      {"sequence": "TCTCTCTCTATACTCCACTCATGTGCTGTACTACACTGACCGGAGTCACCTAGTGCAG", "binding signal": "3660 fluorescence intensity (a.u.)"},
      {"sequence": "CCATTTGTTTCACTTTACACCACACCTCATCTTCTCCAAGCGGAGTCACCTAGTGCAG", "binding signal": "3880 fluorescence intensity (a.u.)"},
      {"sequence": "CCTCCTCCCTCTCGTCCTGCGCCATCATGACGCCGCCGCGCGGAGTCACCTAGTGCAG", "binding signal": "4390 fluorescence intensity (a.u.)"},
      {"sequence": "GCCATATTTTCTGTTTTGTCATCAATATATGATTAGAAAACGGAGTCACCTAGTGCAG", "binding signal": "3320 fluorescence intensity (a.u.)"},
      {"sequence": "GGATAAGCACCGACGATTTGGTGGTAGATCTATATGGGTACGGAGTCACCTAGTGCAG", "binding signal": "48000 fluorescence intensity (a.u.)"},
      {"sequence": "GAGAAGCTGACATGTGGGTCTCACTGCTGAGTCAGCCGGTCGGAGTCACCTAGTGCAG", "binding signal": "21700 fluorescence intensity (a.u.)"},
      {"sequence": "TTGGGAACCCATTGCTGCTGCAAATGGTGGATGAGTTGTCCGGAGTCACCTAGTGCAG", "binding signal": "3470 fluorescence intensity (a.u.)"},
      {"sequence": "CGCACCCGCCGCCACCTCACCGCCCGACGACGACGACGAGCGGAGTCACCTAGTGCAG", "binding signal": "6010 fluorescence intensity (a.u.)"},
      {"sequence": "GAAGAGCTACATGTGCCCCAGTTGCAAGTCTACCCTAACACGGAGTCACCTAGTGCAG", "binding signal": "3420 fluorescence intensity (a.u.)"}
    ]}
  ]
}
